Assay results published in PubChem BioAssay AID1347076 (National Center for Advancing Translational Sciences (NCATS), 2019).
Among all 400,000 compounds or so, about 13,000 (3.2%) were called active. Inconclusive means that the source gave no clear call. Such entries were picked first, then a sample of the others. Calls come from the whole dose curve; as a rule, active = well fitted cell-killing curve with a large enough effect; inconclusive = small, poorly fitted or top-dose-only effect, or effect the other way; inactive = flat fitted curve, though single readings scatter. A potency beside an inconclusive call is a rough fit, not a confirmed value.

test: qHTS assay for MDR1-selective chemotherapeutics: Primary screen using the drug-selected MDR subline cells KB-V1; details: KB-V1 MDR cells viability, CellTiter-Glo, 72 h; activity change, negative = cytotoxicity: at 46.1 µM (top of the series); note: nearly all actives have a fitted effect of over 60% in size
Method in brief: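 Following 72 h at 37 degrees C with compound, KB-V1 cell viability was read by CellTiter-Glo luminescence, medium being phenol-red-free DMEM plus 10% FBS; concentration-response parameters came from normalized, curve-fitted qHTS data.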
% is set by controls: 0 for no effect and ±100 for the full control effect; potency is the fitted concentration of half-maximal effect.

Structure (SMILES) | Potency | activity change, negative = cytotoxicity
O=C(Nc1ccc(Oc2cccnc2)cc1)c1ccc([N+](=O)[O-])cc1 | inconclusive: 18.4 µM [cytotoxic, partial curve] | –
O=C(NCc1ccco1)c1ccc(Cn2c(=S)[nH]c3ccccc3c2=O)cc1 | inconclusive: 20.6 µM [cytotoxic, single point] | –
COc1ccc(CCN2CCCC(CN(C)C(=O)c3ccoc3C)C2)cc1 (stereo not drawn) | inconclusive: 9.2 µM [cytotoxic, partial curve] | –
CCCN(CCC)S(=O)(=O)c1ccc(NC(=O)Cc2cccs2)cc1 | inconclusive: 14.6 µM [cytotoxic, partial curve, poor fit] | –
COc1ccc(C(C(C(=O)c2ccco2)N2CCOCC2)N2CCOCC2)cc1 (stereo not drawn) | inconclusive: 23.1 µM [rising, partial curve, poor fit] | –
Cc1nccc(-c2cccc(N/N=C(\C#N)C(=O)c3ccccc3)c2)n1 | inconclusive: 29.1 µM [cytotoxic, single point] | –
CC(C1SC(=S)NC1=O)C1SC(=S)NC1=O (stereo not drawn) | inactive | –
CC(C)c1onc(C(=O)NCc2cccs2)c1[N+](=O)[O-] | inconclusive: 10.3 µM [rising, partial curve, poor fit] | –
CCCN(CCC)S(=O)(=O)c1ccc(C(=O)N2CCOCC2)cc1 | inconclusive: 0.0058 µM [rising, full curve, poor fit] | –
O=C(NCCSCc1ccccc1)C1CCN(S(=O)(=O)Cc2ccccc2)CC1 | – | inconclusive: -16.5%
CCOC(=O)[C@]12CCC=C1N(Cc1cccc3ccccc13)C(=O)[C@H](CC(=O)N1CCSCC1)C2 | inconclusive: 6.51 µM [cytotoxic, partial curve] | –
COc1ccc(C)cc1NS(=O)(=O)c1ccc2oc(=O)c3ncn(C)c3c2c1 | inconclusive: 23.1 µM [rising, single point] | –
CCCCNC(=O)Nc1ccccc1C(=O)Nc1ccc(OC)cc1 | inconclusive: 13 µM [cytotoxic, partial curve, poor fit] | –
CCC1CCCCN1S(=O)(=O)c1ccc(NC(=O)C2CCCO2)cc1 (stereo not drawn) | inconclusive: 20.6 µM [cytotoxic, partial curve, poor fit] | –
O=[N+]([O-])c1ccc(NC(=S)NCCc2ccccc2)cc1 | inconclusive: 23.1 µM [cytotoxic, single point] | –
Cc1ccc(NC(=O)c2ccc(C)c(S(=O)(=O)N3CCCCCC3)c2)cc1 | active: 20.6 µM | –
CN1CCN(c2nc(-c3ccccc3)c3cc(Cl)ccc3n2)CC1 | inconclusive: 29.1 µM [cytotoxic, single point] | –
CCOC(=O)c1ccc(N=C2SC(C(=O)Nc3ccccc3)CC(=O)N2C)cc1 (stereo not drawn) | inactive | –
O=c1[nH]nc(Cc2ccc(Cl)cc2Cl)c2ccccc12 | inconclusive: 12.6 µM [cytotoxic, partial curve, poor fit] | –
CCN(CC)c1ccc(C2C(C(N)=O)=C(C)Nc3nc(SCc4ccccc4Cl)nn32)cc1 (stereo not drawn) | inconclusive: 29.1 µM [rising, single point] | –
Cc1ccc(C(=O)Nc2nc3ccccc3n2CCN2CCCC2)cc1 | inactive | –
O=C(c1ccc([N+](=O)[O-])o1)N1CCc2ccccc21 | inconclusive: 29.1 µM [cytotoxic, single point] | –
O=C(NNC(=O)c1cc(-c2ccc(Cl)c(Cl)c2)nc2ccccc12)Nc1ccccc1 | inconclusive: 20.6 µM [cytotoxic, single point] | –

A run of entries taken from the entries so far:
Structure (SMILES) | Potency | activity change, negative = cytotoxicity
CCOC(=O)c1ccc(N=C2SC(C(=O)Nc3ccccc3)CC(=O)N2C)cc1 (stereo not drawn) | inactive | –
O=c1[nH]nc(Cc2ccc(Cl)cc2Cl)c2ccccc12 | inconclusive: 12.6 µM [cytotoxic, partial curve, poor fit] | –

Later entries

Structure (SMILES) | Potency | activity change, negative = cytotoxicity
CCOC(=O)c1sc(N)c(C(=O)OC)c1C | inactive | –
CCNc1c2c3c(cccc3n(C)c1=O)C(=O)c1ccccc1-2 | active: 1.16 µM | –
O=C(CSc1nc2ccccc2n1CCc1ccccc1)NC1CC1 | inconclusive: 13 µM [cytotoxic, partial curve, poor fit] | –
COc1ccccc1-c1ccc(SCc2ccccc2F)nn1 | inconclusive: 18.4 µM [cytotoxic, partial curve] | –
COc1ccc(O)c(C(=O)c2cnc3c(c2)CN(C)C(=O)N3)c1 | inconclusive: 29.1 µM [cytotoxic, single point] | –
O=C(/C=C/c1ccc2c(c1)OCO2)Nc1ccc(Cl)cn1 | inactive | –
CN(CCc1ccccc1)C(=O)c1ccc(NC(=O)Cc2cccc(NC(=O)C3CCN(S(=O)(=O)c4cccc([N+](=O)[O-])c4)CC3)c2)cc1 | inconclusive: 13 µM [rising, partial curve] | –
COc1cc(/C=N/NC(=O)c2ccncc2)ccc1OCC(=O)Nc1ccccc1 | inconclusive: 0.0259 µM [cytotoxic, full curve] | –
CO[C@@H]1CN(C)C(=O)c2cc(NC(=O)NC3CCCCC3)ccc2OC[C@@H](C)N(CCc2ccccc2)C[C@H]1C | inconclusive: 10.3 µM [cytotoxic, partial curve, poor fit] | –
CCCCc1nn2c(=O)cc(COC(=O)CNC(=O)COc3ccc(C)cc3)nc2s1 | inconclusive: 23.1 µM [rising, single point] | –
CCN(CC)S(=O)(=O)c1ccc(N2CCCCC2)c(NC(=O)c2ccncc2)c1 | inconclusive: 6.51 µM [cytotoxic, partial curve] | –
CCOC(=O)CSc1ccc(C(=O)Nc2ccc(OC)cc2)cn1 | inconclusive: 29.1 µM [rising, single point] | –
CCN(CC)S(=O)(=O)c1cccc(C(=O)Nc2ccccc2C(=O)Nc2ccc(OC)cc2)c1 | inconclusive: 0.0046 µM [cytotoxic, full curve] | –
CCS(=O)(=O)N1Cc2ccccc2CC1C(=O)Nc1ncc(C)s1 (stereo not drawn) | inconclusive: 18.4 µM [cytotoxic, single point] | –
CC1CCc2[nH]c3ccc(C(=O)N4CCCC(C(F)(F)F)C4)cc3c2C1 (stereo not drawn) | inconclusive: 23.1 µM [cytotoxic, partial curve] | –
Cc1cc(F)ccc1NCC(=O)Nc1ccc(Br)cc1C | inconclusive: 18.4 µM [cytotoxic, partial curve] | –
COc1ccc(N2CCN(CC(O)COc3c(OC)cccc3OC)CC2)cc1 (stereo not drawn) | inactive | –
COc1ccc(-c2cnc(N)nc2-c2ccc(OCc3ccccc3)cc2O)cc1 | inactive | –
COCCn1c(SCC(=O)N2CCc3ccccc3C2)nc2cc(Cl)ccc2c1=O | active: 1.84 µM | –
CCOc1ccc(NC(=O)c2c(NCc3cccs3)sc3c2CCC(C)C3)cc1 (stereo not drawn) | inactive | –
CC(C)Sc1nc2c(cnn2-c2ccc(Cl)cc2)c(=O)[nH]1 | inactive | –
CCc1ccc(CCOc2ccc(CC3SC(=O)NC3=O)cc2)nc1 (stereo not drawn) | inconclusive: 29.1 µM [cytotoxic, single point] | –
CC1(C)CC(c2nc(-c3ccc([N+](=O)[O-])cc3)cs2)CCO1 (stereo not drawn) | inconclusive: 23.1 µM [cytotoxic, single point] | –

2 of these compounds, reformatted:
CCS(=O)(=O)N1Cc2ccccc2CC1C(=O)Nc1ncc(C)s1 (stereo not drawn)
  Potency: inconclusive: 18.4 µM [cytotoxic, single point]
CC1CCc2[nH]c3ccc(C(=O)N4CCCC(C(F)(F)F)C4)cc3c2C1 (stereo not drawn)
  Potency: inconclusive: 23.1 µM [cytotoxic, partial curve]

Additional records follow:

Structure (SMILES) | Potency | activity change, negative = cytotoxicity
C1=CCC(CN2CCNCC2)CC1 (stereo not drawn) | inconclusive: 18.4 µM [rising, single point] | –
COc1cccc(C=Nc2cc(C(C)C)c(O)cc2C)c1O | inconclusive: 25.9 µM [cytotoxic, single point] | –
CN(CC(=O)Nc1ccc(F)cc1)C(=O)COC(=O)c1cc(Br)c(Br)s1 | inactive | –
CCCCN(C)CCCNC(=O)c1cn(CC)c2ccc(S(=O)(=O)N3CCc4ccccc4C3)cc2c1=O | inconclusive: 14.6 µM [rising, partial curve] | –
COC(=O)[C@H](CCSC)NC(=O)c1cccnc1SC | inactive | –
CCC/C(O)=C1\C(=O)CC(C)(C)CC1=Nc1ccccc1O | inconclusive: 20.6 µM [cytotoxic, single point] | –
Cc1ccc2nc(C(O)C(O)c3nc4ccc(C)cc4[nH]3)[nH]c2c1 (stereo not drawn) | inactive | –
CCN(CC)S(=O)(=O)c1ccc(N2CCN(C)CC2)c(NC(=O)c2cc(=O)c3ccccc3o2)c1 | inconclusive: 29.1 µM [cytotoxic, single point] | –
O=C(Nc1cccnc1)c1cc2c(ccc3ccccc32)o1 | active: 13 µM | –
Cc1ccc2oc(-c3ccc(NC(=O)c4oc5ccc(Cl)cc5c4C)cc3)nc2c1 | inconclusive: 29.1 µM [rising, single point] | –
CCOC(=O)c1c(NC(=O)CN2C(=O)NC3(CCCCC3C)C2=O)sc(C)c1C (stereo not drawn) | inconclusive: 9.2 µM [cytotoxic, partial curve, poor fit] | –
c1ccc(OCCNc2ccn3nc(-c4ccc(OCCN5CCOCC5)cc4)cc3n2)cc1 | inconclusive: 23.1 µM [cytotoxic, single point] | –
COC(=O)C1=C(N)Oc2cc(C)n(CCN3CCOCC3)c(=O)c2C1c1cccnc1 (stereo not drawn) | inconclusive: 6.51 µM [rising, partial curve, poor fit] | –
Oc1cccc(/C=N/Nc2ncnc3c2ncn3Cc2ccccc2)c1 | inactive | –
COc1ccc(NC(=O)CCN2CCN(C/C=C/c3ccccc3)CC2)cc1 | inactive | –
O=S1(=O)CC(O)C(N2CCCCC2)C1 (stereo not drawn) | inconclusive: 20.6 µM [rising, partial curve, poor fit] | –
O=C(c1cnn(-c2ccc(F)cc2)c1-n1cccc1)N1CCN(c2ccccc2)CC1 | active: 23.1 µM | –
CN(C)S(=O)(=O)c1ccc(C(=O)Nc2nc(-c3cc4ccccc4o3)cs2)cc1 | inactive | –
COc1cc(-c2nc(-c3ccncc3)no2)cc(OC)c1OC | inconclusive: 20.6 µM [cytotoxic, single point] | –
FC(F)(F)c1cc(-c2ccco2)nc2ncnn12 | inconclusive: 23.1 µM [rising, single point] | –
COc1ccccc1CNC(=O)C(NS(=O)(=O)c1ccc2c(c1)oc(=O)n2C)C(C)C (stereo not drawn) | inactive | –
O=C1Nc2ccc(S(=O)(=O)N3CCCCCC3)c3cccc1c23 | inactive | –
